Experiment [1] deals with eGFP-PqsE(WT) (Pseudomonas aeruginosa) (UniProt P20581). The experiment in a line: affinity purification with mass spectrometry; eGFP-PqsE bait expressed from pUCP18 in WT P. aeruginosa PA14; cryogenic grinding, no cross-linking; cleared lysate (500 ug, 1 mg/mL) on GFP-Trap magnetic beads 1 h at 4°C; 20 mM HEPES pH 7.4, 100 mM potassium acetate, 200 mM NaCl, 2 mM MgCl2, 1% Triton X-100, 0.1% Tween 20; label-free LC-MS/MS, biological triplicate; hits at least 2-fold enriched over eGFP alone.

By UniProt entry, the sequences of proteins in these tests, tags left out.
UniProt P20581: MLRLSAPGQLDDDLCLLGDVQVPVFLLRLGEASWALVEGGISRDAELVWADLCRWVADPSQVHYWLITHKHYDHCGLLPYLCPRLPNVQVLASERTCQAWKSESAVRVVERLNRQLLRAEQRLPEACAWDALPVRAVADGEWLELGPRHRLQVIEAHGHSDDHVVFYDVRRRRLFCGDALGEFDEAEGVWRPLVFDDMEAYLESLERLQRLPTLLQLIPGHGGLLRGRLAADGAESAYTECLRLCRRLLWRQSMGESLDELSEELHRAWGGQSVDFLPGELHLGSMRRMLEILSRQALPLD
UniProt P54292: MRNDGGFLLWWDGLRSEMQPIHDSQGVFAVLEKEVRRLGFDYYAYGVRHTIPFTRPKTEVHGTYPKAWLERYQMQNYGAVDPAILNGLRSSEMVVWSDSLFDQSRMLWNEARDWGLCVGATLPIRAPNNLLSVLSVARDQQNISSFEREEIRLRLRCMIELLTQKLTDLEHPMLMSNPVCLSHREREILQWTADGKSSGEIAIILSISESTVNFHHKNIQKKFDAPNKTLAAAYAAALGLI
UniProt Q59638: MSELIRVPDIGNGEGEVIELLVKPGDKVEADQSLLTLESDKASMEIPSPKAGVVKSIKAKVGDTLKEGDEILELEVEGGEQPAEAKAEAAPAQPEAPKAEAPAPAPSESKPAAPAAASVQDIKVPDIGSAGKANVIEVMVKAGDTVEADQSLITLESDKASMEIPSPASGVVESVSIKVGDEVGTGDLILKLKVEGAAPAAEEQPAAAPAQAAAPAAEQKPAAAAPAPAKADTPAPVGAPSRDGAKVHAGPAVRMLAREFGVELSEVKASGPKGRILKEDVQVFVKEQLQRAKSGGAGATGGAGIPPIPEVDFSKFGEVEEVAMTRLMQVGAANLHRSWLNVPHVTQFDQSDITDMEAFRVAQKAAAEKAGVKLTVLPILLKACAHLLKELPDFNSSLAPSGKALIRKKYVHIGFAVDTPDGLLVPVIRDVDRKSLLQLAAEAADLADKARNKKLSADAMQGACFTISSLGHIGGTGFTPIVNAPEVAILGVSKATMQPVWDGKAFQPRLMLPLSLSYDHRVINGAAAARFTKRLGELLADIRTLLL
UniProt A0A0H2ZFD5: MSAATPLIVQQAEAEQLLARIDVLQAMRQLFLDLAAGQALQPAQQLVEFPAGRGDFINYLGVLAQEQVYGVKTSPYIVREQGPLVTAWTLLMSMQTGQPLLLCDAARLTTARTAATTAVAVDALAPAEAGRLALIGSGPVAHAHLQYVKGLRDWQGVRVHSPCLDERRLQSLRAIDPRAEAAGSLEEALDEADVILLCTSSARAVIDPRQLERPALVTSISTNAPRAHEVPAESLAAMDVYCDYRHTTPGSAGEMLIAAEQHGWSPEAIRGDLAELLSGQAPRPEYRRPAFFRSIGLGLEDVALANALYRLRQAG
UniProt O54439: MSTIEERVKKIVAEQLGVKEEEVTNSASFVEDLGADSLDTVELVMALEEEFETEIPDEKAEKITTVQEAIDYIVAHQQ
UniProt P54291: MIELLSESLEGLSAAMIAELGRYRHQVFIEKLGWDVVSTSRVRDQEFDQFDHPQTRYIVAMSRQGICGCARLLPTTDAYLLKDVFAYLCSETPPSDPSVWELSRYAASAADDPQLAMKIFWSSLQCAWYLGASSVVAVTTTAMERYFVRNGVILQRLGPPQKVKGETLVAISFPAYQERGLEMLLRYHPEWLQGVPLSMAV

Experiment [2] shares this target. In words: affinity purification with mass spectrometry; as a1 but eGFP-PqsE bait expressed from pUCP18 in ΔrhlR P. aeruginosa PA14 (no RhlR); GFP-Trap magnetic beads 1 h at 4°C; hits at least 2-fold enriched over eGFP alone in the same strain.
For experiment [3] the target is unchanged. The description is as above. This is another data set of the same source.

These are yes or no findings as the source states them, for the method shown. In cells and extracts the contact can be indirect. These calls come from enrichment with a bait or labelling near it, and not all partners need be listed. A no says only that the protein was not detected with the bait.

As to “RhlR (from UniProt P54292 1-241) (receptor)”, the binding result in experiment [1] is on record as “binds”.
On to ApeB (from UniProt Q02Q78) (enzyme), for which the binding entry in experiment [1] was “binds”; in experiment [2] it was “no binding (only in the ΔrhlR strain)”.
AceF (from UniProt Q59638 1-547): the binding entry in experiment [2] is reported as “binds”.
Take “PA14_14020 (from UniProt A0A0H2ZFD5 1-315) (enzyme)”: the binding entry in experiment [1] is “binds”; in experiment [2] it was “no binding (only in the ΔrhlR strain)”.
Taken in the same sequence, the figures for AcpP (from UniProt O54439 1-78) were “binds” and “no binding (only in the ΔrhlR strain)”.
Taken in the same sequence, the figures for GpsA (from UniProt Q02K99) (enzyme) were “binds” and “no binding (only in the ΔrhlR strain)”.
As for “RhlI (from UniProt P54291 1-201) (enzyme)”, the binding result in experiment [1] is “no binding (only in WT PA14, where RhlR is present)”; in experiment [2], “binds”.

B1: GlyS (protein, UniProt Q02V73 1-684)
chain: MSAKDFLVELGTEELPPKALNSLGEAFLSGIEKGLKAAGLSYAAARFYAAPRRLAVLVEQLAVQQPDRTVNLDGPPLQAAFDASGNPTQAALGFAKKCGVDLQQIDKSGPKLRFSQTIAGQPAAGLLPGIVEASLNELPIPKRMRWAARREEFVRPTQWLVMLFGDDVVECEILAQKAGRESRGHRFHNPDNVRISSPAAYLEDLRGAHVLADFAERRELIAKRVAELAAEQQGSAIVPPSLLDEVTALVEWPVPLVCSFEERFLEVPQEALITTMQDNQKYFCLLDANGKLLPRFITVANVESKAPENIVSGNEKVVRPRLTDAEFFFKQDKKQPLESFNERLRNVVFQAQLGTVFEKAQRVSGLAAYIAERIGGNAQNAARAGILSKCDLATEMVGEFPEMQGIAGYYYATHGGEAEDVALALNEQYMPRGAGAELPSTLTGAAVAVADKLDTLVGIFGIGMLPTGSKDPYALRRAALGVLRILIEKQLDLDLVAAVNAAVEQYGDKVKAAGLAEQVLDFVFDRLRARYEDEGVDVAVYQSVRALKPSSPLDFDQRVQAVQAFRQLPEAEALAAANKRVSNILAKSEDEVPPNVDASLLVEAAEKALGSAVANAESEVAPLAAARDYRAALARLAALREPVDTFFADVMVNVDDAAVRANRYALLAKLRGSFLGVADISLLG
As for B1, the binding entry in experiment [3] is reported as “binds”.

B2: ThrB (enzyme, UniProt Q02DL4 1-316)
chain: MSVFTPLERSTLEAFLAPYDLGRLRDFRGIAEGSENSNFFVSLEHGEFVLTLVERGPVQDLPFFIELLDVLHEDGLPVPYALRTRDGEALRRLEGKPALLQPRLAGRHERQPNAHHCQEVGDLLGHLHAATRGRILERPSDRGLPWMLEQGANLAPRLPEQARALLAPALAEIAALDAERPALPRANLHADLFRDNVLFDGPHLAGLIDFYNACSGWMLYDLAITLNDWCSNADGSLDPARARALLAAYANRRPFTALEAEHWPSMLRVACVRFWLSRLIAAEAFAGQDVLIHDPAEFEMRLAQRQNVEIHLPFAL
Consider B2, for which the binding entry in experiment [3] is given as “no binding (only in the ΔrhlR strain)”; in experiment [1], “binds”.

B3: MaiA (protein, UniProt P57109 1-212)
chain: MKLYTYYRSTSSYRVRIALALKGLDYQSLPVNLIRDGGEHRQPAYLALNPQGRVPALQVDEGELLIQSPAIIEYLEERYPQPALLSSDPLRRARERGVAALVGCDIHPLHNASVLNLLRQWGHDEEQVRQWIGHWVGQGLAAVEQLIGDQGWCFGDRPGLADVYLVPQLYAAERFGVALDAWPRIRRVADLAAAHPAFRQAHPANQPDTPAA
Consider B3, for which the binding result in experiment [3] was “no binding (only in the ΔrhlR strain)”; in experiment [1], “binds”.

B4: NadB (protein, UniProt Q51363 1-538)
chain: MSQHYQHDVLVIGSGAAGLSLALTLPEHLRIAVLSKGELSQGSTYWAQGGVAAVLDDTDTVESHVEDTLVAGGGLCREDAVRFTVEHSREAIQWLIEQGVPFTRDEQHNHEEGSFEYHLTREGGHSHRRIIHAADATGAAIFNTLLAQARRRPNIELLSQRVAVDLITERKLGLPSKRCLGAYVLNRESGEVDTFRARFSVLASGGASKVYLYTSNPDGNSGDGIAMAWRAGCRVGNLEFNQFHPTCLYHPQAKSFLITEALRGEGALLRLPNGERFMPRFDPRGELAPRDIVARAIDHEMKRLGIDCVYLDISHKPAEFIKAHFPTVYERCLDFGIDITQQPIPVVPAAHYTCGGVLVDQHGHTDVPGLYAIGETTFTGLHGANRMASNSLLECFVYARSAAADMLQRLPGTPVPESLPSWDASQVTDSDEDVIIAHNWDELRRFMWDYVGIVRTNKRLQRAQHRVRLLLSEIDEFYSNYKVSRDLIELRNLALVAELIIRSAMQRRESRGLHYTLDYPDLLPEARDTILVPPIYGD
B4: the binding entry in experiment [3] is given as “binds”.

B5: YbeY (enzyme, UniProt Q02SF0 1-160)
chain: MPLELDLQVASAAPDLPSEAQFRAWCELALRQRPESELTIRLVDEAEGLELNSTYRHKDYATNVLSFPADVPDELLDIPLLGDLVICAPVVAREALEQRKPLQAHWAHLVIHGCLHLLGYDHIDDAEAEEMETLERELLAELGHPDPYACDDEEPPSKEK
On to B5, for which the binding entry in experiment [3] is “no binding (only in the ΔrhlR strain)”; in experiment [1], “binds”.

B6: GapA (protein, UniProt P27726 1-334)
chain: MTIRLAINGFGRIGRNVLRALYTGHYREQLQVVAINDLGDAAVNAHLFQYDSVHGHFPGEVEHDAESLRVMGDRIAVSAIRNPAELPWKSLGVDIVLECTGLFTSRDKAAAHLQAGAGKVLISAPGKDVEATVVYGVNHEVLRASHRIVSNASCTTNCLAPVAQVLHRELGIEHGLMTTIHAYTNDQNLSDVYHPDLYRARSATQSMIPTKTGAAEAVGLVLPELAGKLTGLAVRVPVINVSLVDLTVQVARDTSVDEVNRLLREASEGSPVLGYNTQPLVSVDFNHDPRSSIFDANHTKVSGRLVKAMAWYDNEWGFSNRMLDSALALAAARD
B6: the binding entry in experiment [3] is “binds”.

B7: PA14_03450 (protein, UniProt Q9I6M4 1-426)
chain: MSKTNESLLKRRQAAVPRGVGQIHPVVAERAENSTVWDVEGREYIDFAGGIAVLNTGHLHPKVIAAVQEQLGKLSHTCFQVLAYEPYIELAEEIAKRVPGDFPKKTLLVTSGSEAVENAVKIARAATGRAGVIAFTGAYHGRTMMTLGLTGKVVPYSAGMGLMPGGIFRALAPCELHGVSEDDSIASIERIFKNDAQPQDIAAIIIEPVQGEGGFYVNSKSFMQRLRALCDQHGILLIADEVQTGAGRTGTFFATEQLGIVPDLTTFAKSVGGGFPISGVAGKAEIMDAIAPGGLGGTYAGSPIACAAALAVLKVFEEEKLLERSQAVGERLKAGLREIQAKHKVIGDVRGLGSMVAIELFEGGDTHKPAAELVSKIVVRAREKGLILLSCGTYYNVIRFLMPVTIPDAQLEKGLAILAECFDELA
Take B7: the binding result in experiment [3] is reported as “binds”.

B8: GcvH1 (protein, UniProt Q9I136 1-127)
chain: MSKLRFTTDHEWLRQDDDGLLTVGITAYAQDALGDVVFVQLPELGEHAAGSEVAVLESVKAASNILMPLDGEVVAINDALPDAPELVNQDPLGEAWFFRFRPADAGAWEKLLDQAAYDRLLNANADA
With B8, the binding entry in experiment [3] is “no binding (only in the ΔrhlR strain)”; in experiment [1] it was “binds”.

B9: GroS (protein, UniProt Q02H54 1-97)
chain: MKLRPLHDRVVIRRSEEETKTAGGIVLPGSAAEKPNRGEVVAVGTGRVLDNGEVRALAVKVGDKVVFGPYSGSNAIKVDGEELLVMGESEILAVLED
In the case of B9, the binding result in experiment [3] is “binds”.

B10: AckA (protein, UniProt B7UYA0 1-394)
chain: MPSRNILVINCGSSSIKFALVNEAHSLFPLHGLAERLGSRDAVLRWKRGGDSDSLMIPNADHRAALAQLLPMVQNAAGGKLHGIGHRVVHGGELFTHATRIDDRVVEAIRATAPLAPLHNPANLQGIEAAMTLFPKLPHVAVFDTAFHQSLPEHAYRYALPEALYREHGVRRYGFHGTSHRYVSHRAAEMAGLAVGDSSWLSAHLGNGSSTCAIVNGQSLDTSMGLTPLEGLVMGTRSGDVDPNLHSHLARTLGWSLERIDSMLNNESGLLGLSDLSNDMRTLEQEREQGHPGAALAIEVFCYRLAKSLAAMSCALPQLDGVIFTGGIGENSPLVRAKTAAHLRLFDLRLDQEANARCVRGVAGPIQAAGHPRVLVIPTNEERQIALDTLALLD
For B10, the binding result in experiment [3] is recorded as “binds”.

The record behind these values is paper PMC9600345.
